Results are given in words; binding and its absence hold for the method and conditions named. Binding can be weak; no strength is given.
Molecular target: T1, syndecan-1 (SDC1) of human placenta, carrying placental chondroitin sulfate (human (endogenous in placenta)) (UniProt P18827)
T1 sequence (chain, chondroitin sulfate chains (placental CS)): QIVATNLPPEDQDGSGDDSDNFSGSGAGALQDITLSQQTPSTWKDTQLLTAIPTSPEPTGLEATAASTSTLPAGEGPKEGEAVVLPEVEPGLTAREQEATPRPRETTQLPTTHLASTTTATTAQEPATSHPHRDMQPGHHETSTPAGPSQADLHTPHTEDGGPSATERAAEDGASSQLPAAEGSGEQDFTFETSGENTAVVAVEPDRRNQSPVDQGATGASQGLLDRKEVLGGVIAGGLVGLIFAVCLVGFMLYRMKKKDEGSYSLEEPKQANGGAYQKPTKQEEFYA
Assay: parasite adhesion assay; placental proteoglycan extract captured on spots coated with anti-SDC1 antibody (B-A38); 5 x 10^6 infected erythrocytes/ml in PBS with 2% FBS settled 20 minutes at RT; controls: isotype IgG, 400 ug/ml soluble CSA, extract pre-digested with Chondroitinase ABC

**Q.** “VAR2CSA on infected erythrocytes (FCR3 parasites selected on BeWo cells) (Plasmodium falciparum (FCR3))” was tested. Which binding did it give?
**A.** binds
